# Assay results from PMC8384837.
# Changes are numbered by the printed parent chain. The list shows a part of the results. For part of these data: At the low end of the ranking the order means little. For part of these data: The exact form of the protein is not confirmed.
# Columns and labels:
# Conditions in all cases: yeast three-hybrid, YBZ-1, SC-Leu-His + 0.5 mM 3-AT, 4 days
# [1] = target: T1, PUM1 PUF domain R2-VFQ R3-THE R4-TFR N899V + Y900F + C935T + R936H + Q939E + N971T + H972F + Q975R (UniProt Q14671)
# T1 sequence: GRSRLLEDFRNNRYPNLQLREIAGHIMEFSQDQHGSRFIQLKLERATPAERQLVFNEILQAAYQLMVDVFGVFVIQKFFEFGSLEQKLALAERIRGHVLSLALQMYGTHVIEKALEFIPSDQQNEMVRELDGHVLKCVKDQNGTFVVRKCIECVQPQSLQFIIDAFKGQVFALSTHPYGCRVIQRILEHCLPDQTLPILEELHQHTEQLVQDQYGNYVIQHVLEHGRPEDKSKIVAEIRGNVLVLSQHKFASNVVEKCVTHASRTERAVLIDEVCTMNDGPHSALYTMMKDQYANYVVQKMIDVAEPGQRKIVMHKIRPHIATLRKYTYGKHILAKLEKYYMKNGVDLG
# [2] = target: T2, PUM1 PUF domain R5-PHQ R6-SWD C1007P + R1008H + N1043S + Y1044W + Q1047D (UniProt Q14671)
# T2 sequence: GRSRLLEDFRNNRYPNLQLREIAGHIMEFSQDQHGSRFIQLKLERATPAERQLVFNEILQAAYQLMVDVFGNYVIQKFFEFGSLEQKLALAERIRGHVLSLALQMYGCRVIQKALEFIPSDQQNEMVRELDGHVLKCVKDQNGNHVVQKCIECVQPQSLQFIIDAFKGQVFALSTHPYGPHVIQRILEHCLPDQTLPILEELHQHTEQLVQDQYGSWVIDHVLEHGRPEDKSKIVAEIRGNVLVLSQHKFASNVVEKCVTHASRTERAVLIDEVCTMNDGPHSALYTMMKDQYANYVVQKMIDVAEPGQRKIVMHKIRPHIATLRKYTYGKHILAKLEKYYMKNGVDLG
# [3] = target: T3, PUM1 PUF domain R6-SWD R7-NPG N1043S + Y1044W + Q1047D + S1079N + N1080P + E1083G (UniProt Q14671)
# T3 sequence: T2 sequence with P180C, H181R, S252N, N253P, E256G
# [4] = target: T4, PUM1 PUF domain R6-SWD R7-NPG N1043S + Y1044W + Q1047D + S1079N + N1080P + E1083G (Homo sapiens) (UniProt Q14671)
# T4 sequence: T2 sequence with P180C, H181R, S252N, N253P, E256G
# [5] = target: T5, PUM1 PUF domain R3-THE R4-TFR C935T + R936H + Q939E + N971T + H972F + Q975R (UniProt Q14671)
# T5 sequence: T1 sequence with V72N, F73Y
sequence,measurement,setting,value
GGCUAGAACUAGUGGAUCCCCCGGCGCCCGGCGGCUCGAGCCCGGGUAAGAUGACACCGUCUGCAUGCCGCCGGGCGCCAUGCCUGCAGGUCGACUCUAGAAAACAUG,binding signal (log2 enrichment (interaction score)),[1],-4.69
same,binding signal (log2 enrichment (interaction score)),[2],-8.52
GGCUAGAACUAGUGGAUCCCCCGGCGCCCGGCGGCUCGAGCCCGGGUAAGAGAAAAACGUCUGCAUGCCGCCGGGCGCCAUGCCUGCAGGUCGACUCUAGAAAACAUG,binding signal (log2 enrichment (interaction score)),[1],-6.01
same,binding signal (log2 enrichment (interaction score)),[2],< -7.54
same,binding signal (log2 enrichment (interaction score)),[3],-2.39
GGCUAGAACUAGUGGAUCCCCCGGCGCCCGGCGGCUCGAGCCCGGGUAAGUGCGAUAGGUCUGCAUGCCGCCGGGCGCCAUGCCUGCAGGUCGACUCUAGAAAACAUG,binding signal (log2 enrichment (interaction score)),[1],-5.37
same,binding signal (log2 enrichment (interaction score)),[4],-0.52
GGCUAGAACUAGUGGAUCCCCCGGCGCCCGGCGGCUCGAGCCCGGGUAAGUAGAGAGGGUCUGCAUGCCGCCGGGCGCCAUGCCUGCAGGUCGACUCUAGAAAACAUG,binding signal (log2 enrichment (interaction score)),[1],< -5.64
same,binding signal (log2 enrichment (interaction score)),[2],-7.16
GGCUAGAACUAGUGGAUCCCCCGGCGCCCGGCGGCUCGAGCCCGGGUAAGAAUAGUAAGUCUGCAUGCCGCCGGGCGCCAUGCCUGCAGGUCGACUCUAGAAAACAUG,binding signal (log2 enrichment (interaction score)),[5],< -7.56
GGCUAGAACUAGUGGAUCCCCCGGCGCCCGGCGGCUCGAGCCCGGGUAAGUUCCAGAAGUCUGCAUGCCGCCGGGCGCCAUGCCUGCAGGUCGACUCUAGAAAACAUG,binding signal (log2 enrichment (interaction score)),[1],-5.45
same,binding signal (log2 enrichment (interaction score)),[4],-1.6
GGCUAGAACUAGUGGAUCCCCCGGCGCCCGGCGGCUCGAGCCCGGGUAAGUGUGAAAGGUCUGCAUGCCGCCGGGCGCCAUGCCUGCAGGUCGACUCUAGAAAACAUG,binding signal (log2 enrichment (interaction score)),[1],-5.18
same,binding signal (log2 enrichment (interaction score)),[2],< -7.25
GGCUAGAACUAGUGGAUCCCCCGGCGCCCGGCGGCUCGAGCCCGGGUAAGUAGAGUCCGUCUGCAUGCCGCCGGGCGCCAUGCCUGCAGGUCGACUCUAGAAAACAUG,binding signal (log2 enrichment (interaction score)),[1],-5.24
same,binding signal (log2 enrichment (interaction score)),[4],-0.6
GGCUAGAACUAGUGGAUCCCCCGGCGCCCGGCGGCUCGAGCCCGGGUAAGUUGCAAGAGUCUGCAUGCCGCCGGGCGCCAUGCCUGCAGGUCGACUCUAGAAAACAUG,binding signal (log2 enrichment (interaction score)),[1],-5.8
same,binding signal (log2 enrichment (interaction score)),[2],< -7.1
GGCUAGAACUAGUGGAUCCCCCGGCGCCCGGCGGCUCGAGCCCGGGUAAGAUGAAGUUGUCUGCAUGCCGCCGGGCGCCAUGCCUGCAGGUCGACUCUAGAAAACAUG,binding signal (log2 enrichment (interaction score)),[1],-5.58
same,binding signal (log2 enrichment (interaction score)),[2],-7.54
same,binding signal (log2 enrichment (interaction score)),[4],-1.53
GGCUAGAACUAGUGGAUCCCCCGGCGCCCGGCGGCUCGAGCCCGGGUAAGUUGAUCAUGUCUGCAUGCCGCCGGGCGCCAUGCCUGCAGGUCGACUCUAGAAAACAUG,binding signal (log2 enrichment (interaction score)),[1],-5.2
same,binding signal (log2 enrichment (interaction score)),[4],-0.91
GGCUAGAACUAGUGGAUCCCCCGGCGCCCGGCGGCUCGAGCCCGGGUAAGGCGAAGUAGUCUGCAUGCCGCCGGGCGCCAUGCCUGCAGGUCGACUCUAGAAAACAUG,binding signal (log2 enrichment (interaction score)),[1],-6.45
same,binding signal (log2 enrichment (interaction score)),[2],< -7.4
GGCUAGAACUAGUGGAUCCCCCGGCGCCCGGCGGCUCGAGCCCGGGUAAGUAGAAGAUGUCUGCAUGCCGCCGGGCGCCAUGCCUGCAGGUCGACUCUAGAAAACAUG,binding signal (log2 enrichment (interaction score)),[1],< -6.35
same,binding signal (log2 enrichment (interaction score)),[2],-7.87
GGCUAGAACUAGUGGAUCCCCCGGCGCCCGGCGGCUCGAGCCCGGGUAAGCUAAAGAAGUCUGCAUGCCGCCGGGCGCCAUGCCUGCAGGUCGACUCUAGAAAACAUG,binding signal (log2 enrichment (interaction score)),[5],-7.53
GGCUAGAACUAGUGGAUCCCCCGGCGCCCGGCGGCUCGAGCCCGGGUAAGAGGAGAGCGUCUGCAUGCCGCCGGGCGCCAUGCCUGCAGGUCGACUCUAGAAAACAUG,binding signal (log2 enrichment (interaction score)),[1],-5.7
same,binding signal (log2 enrichment (interaction score)),[2],-8.09
same,binding signal (log2 enrichment (interaction score)),[4],-0.61
GGCUAGAACUAGUGGAUCCCCCGGCGCCCGGCGGCUCGAGCCCGGGUAAGUAGAGAUUGUCUGCAUGCCGCCGGGCGCCAUGCCUGCAGGUCGACUCUAGAAAACAUG,binding signal (log2 enrichment (interaction score)),[1],-5.62
same,binding signal (log2 enrichment (interaction score)),[2],-7.82
same,binding signal (log2 enrichment (interaction score)),[4],-0.32
GGCUAGAACUAGUGGAUCCCCCGGCGCCCGGCGGCUCGAGCCCGGGUAAGUUGAACUCGUCUGCAUGCCGCCGGGCGCCAUGCCUGCAGGUCGACUCUAGAAAACAUG,binding signal (log2 enrichment (interaction score)),[1],-5.03
same,binding signal (log2 enrichment (interaction score)),[2],-9.02
same,binding signal (log2 enrichment (interaction score)),[3],-2.32
GGCUAGAACUAGUGGAUCCCCCGGCGCCCGGCGGCUCGAGCCCGGGUAAGGUUAAACAGUCUGCAUGCCGCCGGGCGCCAUGCCUGCAGGUCGACUCUAGAAAACAUG,binding signal (log2 enrichment (interaction score)),[1],-5.49
same,binding signal (log2 enrichment (interaction score)),[2],< -7.65
same,binding signal (log2 enrichment (interaction score)),[4],-1.89
GGCUAGAACUAGUGGAUCCCCCGGCGCCCGGCGGCUCGAGCCCGGGUAAGUGCAAGACGUCUGCAUGCCGCCGGGCGCCAUGCCUGCAGGUCGACUCUAGAAAACAUG,binding signal (log2 enrichment (interaction score)),[1],-5.78
same,binding signal (log2 enrichment (interaction score)),[2],< -7.91

# Exported as tab-separated lines: entries from further up.
sequence	measurement	setting	value
GGCUAGAACUAGUGGAUCCCCCGGCGCCCGGCGGCUCGAGCCCGGGUAAGAUGACACCGUCUGCAUGCCGCCGGGCGCCAUGCCUGCAGGUCGACUCUAGAAAACAUG	binding signal (log2 enrichment (interaction score))	[1]	-4.69
same	binding signal (log2 enrichment (interaction score))	[2]	-8.52
GGCUAGAACUAGUGGAUCCCCCGGCGCCCGGCGGCUCGAGCCCGGGUAAGAGAAAAACGUCUGCAUGCCGCCGGGCGCCAUGCCUGCAGGUCGACUCUAGAAAACAUG	binding signal (log2 enrichment (interaction score))	[1]	-6.01
same	binding signal (log2 enrichment (interaction score))	[2]	< -7.54
same	binding signal (log2 enrichment (interaction score))	[3]	-2.39
GGCUAGAACUAGUGGAUCCCCCGGCGCCCGGCGGCUCGAGCCCGGGUAAGUGCGAUAGGUCUGCAUGCCGCCGGGCGCCAUGCCUGCAGGUCGACUCUAGAAAACAUG	binding signal (log2 enrichment (interaction score))	[1]	-5.37
same	binding signal (log2 enrichment (interaction score))	[4]	-0.52
GGCUAGAACUAGUGGAUCCCCCGGCGCCCGGCGGCUCGAGCCCGGGUAAGUAGAGAGGGUCUGCAUGCCGCCGGGCGCCAUGCCUGCAGGUCGACUCUAGAAAACAUG	binding signal (log2 enrichment (interaction score))	[1]	< -5.64
same	binding signal (log2 enrichment (interaction score))	[2]	-7.16
GGCUAGAACUAGUGGAUCCCCCGGCGCCCGGCGGCUCGAGCCCGGGUAAGAAUAGUAAGUCUGCAUGCCGCCGGGCGCCAUGCCUGCAGGUCGACUCUAGAAAACAUG	binding signal (log2 enrichment (interaction score))	[5]	< -7.56
GGCUAGAACUAGUGGAUCCCCCGGCGCCCGGCGGCUCGAGCCCGGGUAAGUUCCAGAAGUCUGCAUGCCGCCGGGCGCCAUGCCUGCAGGUCGACUCUAGAAAACAUG	binding signal (log2 enrichment (interaction score))	[1]	-5.45
